# Data reported in PubChem BioAssay AID504467 (National Center for Advancing Translational Sciences (NCATS), 2011).
# Screen size: about 330,000 compounds; about 7,700 (2.3%) were called active. The shares of active, inactive and inconclusive entries below differ from those in the screen. Calls follow the shape of the dose curve; as a rule, active = well fitted inhibition curve with a large enough effect; inconclusive = small, poorly fitted or top-dose-only effect, or effect the other way; inactive = flat fitted curve, though single readings scatter. A potency beside an inconclusive call is a rough fit, not a confirmed value.
# Test: qHTS screen for small molecules that inhibit ELG1-dependent DNA repair in human embryonic kidney (HEK293T) cells expressing luciferase-tagged ELG1; also: nearly all actives have a fitted effect of over 55% in size
# Conditions: HEK293T ELG1-luciferase reporter, luminescence, 16 h, DNA damage induced by 5-fluorouridine; activity change, negative = inhibition: at 46.1 µM (top of the series)
# Summary of the method: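 5-Fluorouridine DNA damage + compound/DMSO, 2,000 cells/well, 16 h, 37 °C/5% CO2. ONE-Glo, 30 min RT, luminescence. Readout = decrease in reporter signal.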
# % is scaled to controls: 0 for no effect and ±100 for the full control effect; potency is read from the fitted curve at half-maximal effect.
SMILES,Potency,"activity change, negative = inhibition"
O=C(CN1CCN(S(=O)(=O)N2CCOCC2)CC1)Nc1cc(Cl)ccc1Cl,active: 20.6 µM,–
N/C(=N\OC(=O)Cc1cccc2ccccc12)c1ccccn1,"inconclusive: 14.6 µM [activator, partial curve]",–
Cc1cc(N2CCN(C)CC2)nc2ccc(NC(=O)CCC(=O)N3CCN(c4ccc([N+](=O)[O-])cc4)CC3)cc12,"inconclusive: 0.0046 µM [inhibitor, full curve, poor fit]",–
CCOC(=O)c1cc(S(=O)(=O)Nc2ccc(F)cc2F)cn1C,–,inactive: -11.2%
O=C(CSc1nnc(-c2ccco2)o1)N1CCOCC1,"inconclusive: 13 µM [activator, partial curve]",–
Cc1cc(C)c(C#N)c(Nc2ccccc2)n1,"inconclusive: 0.517 µM [inhibitor, partial curve, poor fit]",–
CN(C)C1=NC(=O)/C(=C/c2ccc(-c3ccc(S(N)(=O)=O)cc3)o2)S1,–,inactive: -1.98%
N#Cc1c(SCc2ccccc2)nc(N2CCOCC2)c2c1CCCC2,"inconclusive: 29.1 µM [inhibitor, single point]",–
COc1ccc2nc(NC(=O)c3ccc(-n4nc(C)cc4C)cc3)sc2c1,"inconclusive: 6.51 µM [inhibitor, partial curve, poor fit]",–
Cc1ccc(S(=O)(=O)N2CCC(C(=O)NNC(=O)c3ccc(F)cc3)CC2)cc1,–,inactive: 23.6%
CN(c1ncnc(N)c1[N+](=O)[O-])C1CCCCC1,active: 1.83 µM,–
Clc1ccc(-c2noc(/C=C/c3ccccc3)n2)cc1,"inconclusive: 25.9 µM [activator, partial curve]",–
COc1ccc(N(C)C(=O)Nc2ccc3nsnc3c2)cc1,–,inactive: 10.3%
CC(C)(C)OC(=O)NNc1c2ccccc2nc2ccccc12,"inconclusive: 14.6 µM [inhibitor, partial curve]",–
CCCN(Cc1ccccc1)C(=S)Nc1ccc(SC(F)F)cc1,active: 23.1 µM,–
COc1ccc2cc(CCNC(=O)c3cccc([N+](=O)[O-])c3)c(=O)[nH]c2c1,"inconclusive: 3.66 µM [inhibitor, partial curve, poor fit]",–
Cc1cc(Nc2ccccc2)n(C(=O)c2ccc(N)cc2)n1,"inconclusive: 5.8 µM [activator, full curve]",–
Cc1nc(C(=O)Nc2ccccc2)sc1C(=O)Nc1ccccc1,"inconclusive: 14.6 µM [activator, partial curve]",–
COc1ccc(NC(=O)c2cccc3c(Br)cccc23)cc1,–,inactive: 0%
Cc1nc(-c2ccc(NC(=O)c3ccco3)cc2)cs1,"inconclusive: 0.231 µM [activator, partial curve]",–
C/C(=N\NC(=O)c1ccc(NS(=O)(=O)c2cccs2)cc1)c1ccc(O)cc1O,"inconclusive: 29.1 µM [inhibitor, single point]",–
O=C(CNC1=NCCC1)c1ccc2c(c1)OCCO2,–,inactive: 5.76%
Cc1cc(N2CCCC2)nc(SCC(=O)c2ccccc2)n1,"inconclusive: 16.4 µM [activator, partial curve]",–
CC1(C(=O)N2CCC(CC3CC(c4ccc(Cl)cc4)=NO3)(C(=O)NCC3CCCCC3)CC2)CC1 (stereo unspecified),"inconclusive: 2.31 µM [inhibitor, partial curve]",–

SMILES,Potency,"activity change, negative = inhibition"
c1ccc(COc2ccc3nocc3c2)cc1,"inconclusive: 12.6 µM [activator, partial curve]",–
CC(C)(C)c1ccc(OCc2ccc(C(=O)N/N=C3\CC4CC=CC34)cc2)cc1 (stereo unspecified),"inconclusive: 1.84 µM [activator, partial curve]",–
O=C(O)c1cccc(S(=O)(=O)Nc2ccc(N3CCCCC3)cc2)c1,"inconclusive: 20.6 µM [activator, single point]",–
CC(C)c1ccc(/C=C/C(=O)CCC(=O)O)cc1,"inconclusive: 0.82 µM [activator, full curve]",–
COc1ccc(C(=O)Nc2ccc(Cn3ccnc3)cc2)cc1OC,"inconclusive: 16.4 µM [activator, single point]",–
COc1ccc(OCCOC(=O)c2[nH]c(C)c(C(C)=O)c2C)cc1,"inconclusive: 14.6 µM [inhibitor, partial curve]",–
CCOc1ccc(NC(=O)C2CC(=O)N(c3ccc4c(c3)OCCO4)C2)cc1OCC (stereo unspecified),–,inactive: 1.52%
CCN(CCNC(=O)c1cccc(N2CCCC2=O)c1)c1ccccc1,"inconclusive: 14.6 µM [activator, partial curve, poor fit]",–
Cc1cc(NC(=O)c2cc(-c3ccncc3)nc3c(C)cccc23)no1,active: 9.2 µM,–
COCCN(CCOC)c1ncnc2c1cnn2-c1ccc(Cl)cc1,"inconclusive: 16.4 µM [activator, partial curve]",–
Cc1ccc(-n2c(-c3cn(C)nc3C)n[nH]c2=S)cc1,–,inactive: -11.4%
COc1ccccc1OCC(=O)NC1CCSc2ccccc21 (stereo unspecified),–,inactive: 17.1%
CC(OC(=O)c1nc(-c2ccccc2)n(-c2ccccc2)n1)C(=O)Nc1cc(Cl)cc(Cl)c1 (stereo unspecified),–,inactive: 5.27%
O=c1c2ccccc2nc(COc2ccccc2)n1/N=C/c1ccc(O)cc1O,"inconclusive: 20.6 µM [inhibitor, single point]",–
N#Cc1cccc(C(=O)OCC(=O)N2CCCc3ccccc32)c1,"inconclusive: 23.1 µM [activator, single point]",–
CN(CCC#N)C(=O)COC(=O)c1ccc(Cl)c(S(=O)(=O)N(C)c2ccccc2)c1,–,inactive: -3.29%
Cc1ccc(-c2nnc(SCC(N)=O)nc2-c2ccc(C)cc2)cc1,–,inactive: -4.94%
O=C(OCc1ccccc1)c1cc(S(=O)(=O)N2CCCCC2)ccc1N1CCOCC1,"inconclusive: 29.1 µM [inhibitor, single point]",–
Cc1onc(-c2ccccc2)c1C(=O)c1c[nH]c(C(=O)NCc2ccccn2)c1,active: 16.4 µM,–
Nc1c(N(Cc2ccccc2)C(=O)COc2ccc(F)cc2Cl)c(=O)[nH]c(=O)n1Cc1ccccc1,–,inactive: -14%
O=C(COc1ncnc2sccc12)N1CCc2ccccc2C1,"inconclusive: 29.1 µM [activator, partial curve, poor fit]",–
COc1cc(C(=O)N/C(=C\c2cn(C)c3ccccc23)C(=O)N2CCOCC2)cc(OC)c1OC,"inconclusive: 2.31 µM [inhibitor, full curve]",–
CCOC(=O)C1CCCN(c2nc3ccccc3nc2C(C#N)C(=O)OC(C)COC)C1 (stereo unspecified),"inconclusive: 29.1 µM [inhibitor, single point]",–
COc1ccc(-c2nnc(SCc3cccnc3)o2)cc1,"inconclusive: 18.4 µM [activator, partial curve]",–

SMILES,Potency,"activity change, negative = inhibition"
Oc1ccc(Br)cc1/C=N/Nc1ncc(-c2ccccc2)cn1,–,inactive: -18.7%
C=CCSc1nnc(NC(=O)C2CC(=O)N(c3ccc4c(c3)OCCO4)C2)s1 (stereo unspecified),"inconclusive: 18.3 µM [activator, single point]",–
Cc1ccc2c(c1)c1c(n2C)-c2[nH]ncc2CC1,"inconclusive: 16.4 µM [activator, single point]",–
COc1ccc(CC(=O)NCc2ccc3c(c2)cc(C)n3C)cc1,–,inactive: 2.89%
CC(=O)c1cccc(NC(=O)C2=CN3CCS(=O)(=O)N=C3C=C2)c1,"inconclusive: 35.5 µM [activator, single point]",–
OC(CNc1ncnc2sccc12)c1ccccc1 (stereo unspecified),"inconclusive: 18.3 µM [activator, partial curve]",–
COc1ccc(/C=N/NC(=O)c2cccc(Br)c2)cc1COc1ccccn1,"inconclusive: 16.4 µM [inhibitor, single point]",–
Cc1cccc2c(N=NC(=O)c3ccc(NS(=O)(=O)c4cccs4)cc3)c(O)[nH]c12,"inconclusive: 8.2 µM [activator, partial curve]",–
O=S(=O)(NCC(c1ccco1)N1CCN(c2ccc(F)cc2)CC1)c1ccc2c(c1)OCCO2 (stereo unspecified),"inconclusive: 29.1 µM [inhibitor, partial curve, poor fit]",–
CCCC(=O)Nc1cc(OC)c(C(=O)OC)cc1Cl,–,inactive: 12.3%
C[C@H](CO)N1C[C@H](C)[C@@H](CN(C)C(=O)Nc2ccccc2)Oc2c(NC(=O)NC3CCCCC3)cccc2C1=O,"inconclusive: 18.3 µM [inhibitor, partial curve]",–
O=C1CCCC2=C1C(c1ccccc1)NC(=S)N2 (stereo unspecified),"inconclusive: 25.9 µM [inhibitor, single point]",–
CCOC(=O)c1ccc(NC(=O)c2nc[nH]c2C(=O)N[C@@H](CC(C)C)C(=O)OC(C)(C)C)cc1,–,inactive: -18.6%
CC1CCCC/C1=N\NC(=S)NCCc1ccccc1 (stereo unspecified),–,inactive: -3.44%
CC(C)(CCl)C(=O)Nc1ccc(Sc2ccc(F)cc2)cc1,"inconclusive: 35.5 µM [inhibitor, single point]",–
c1ccc(CN2C3=NCCN3c3ccccc32)cc1,–,inactive: -20.6%
CCCNCc1nnc(-c2ccccc2Cl)o1,"inconclusive: 16.4 µM [activator, single point]",–
O/N=C/c1ccccc1Oc1ccc(Cl)cc1,–,inactive: 5.34%
S=C(NC1CCCCC1)N1CCN(C/C=C/c2ccccc2)CC1,"inconclusive: 18.4 µM [inhibitor, partial curve, poor fit]",–
CCCC(=O)Nc1nnc(/C=C/c2ccccc2)s1,"inconclusive: 23.1 µM [activator, single point]",–
O=C1OC(c2ccccc2)=C/C1=C\N1CCOCC1,"inconclusive: 8.2 µM [activator, partial curve]",–
COC(=O)c1cccc(CN2C(=O)SC(Nc3ccccc3)C2=O)c1 (stereo unspecified),"inconclusive: 6.51 µM [inhibitor, single point]",–
Cc1ccc(S(=O)(=O)N2CCN(Cc3ccccc3C(F)(F)F)CC2)cc1,–,inactive: -6.4%

# Of the compounds above, these contain a cyano group.
SMILES,Potency,"activity change, negative = inhibition"
Cc1cc(C)c(C#N)c(Nc2ccccc2)n1,"inconclusive: 0.517 µM [inhibitor, partial curve, poor fit]",–
N#Cc1c(SCc2ccccc2)nc(N2CCOCC2)c2c1CCCC2,"inconclusive: 29.1 µM [inhibitor, single point]",–
N#Cc1cccc(C(=O)OCC(=O)N2CCCc3ccccc32)c1,"inconclusive: 23.1 µM [activator, single point]",–
CN(CCC#N)C(=O)COC(=O)c1ccc(Cl)c(S(=O)(=O)N(C)c2ccccc2)c1,–,inactive: -3.29%
CCOC(=O)C1CCCN(c2nc3ccccc3nc2C(C#N)C(=O)OC(C)COC)C1 (stereo unspecified),"inconclusive: 29.1 µM [inhibitor, single point]",–
